Here are results for one compound from patent US8512733B2, “Stents with drug-containing amphiphilic polymer coating” (Abbott Laboratories, priority 2001, dated 2013).

The nature of this data set: Estradiol uptake studies (drug loading on polymer coated stents, HPLC).

Consider `C[C@]12CC[C@@H]3c4ccc(O)cc4CC[C@H]3[C@@H]1CC[C@@H]2O` [estradiol, 17β-estradiol], for which the drug total loading (Example 1.1: 15 mm BiodivYsio DD stents, copolymer d), immersed in 20 mg/ml solution 30 minutes) was 45-65 μg per stent. Further, the “amount on each balloon” value (Example 1.2) was in the range of 190 to 220 µg. Also, the “level of drug on the stents” value (Example 1.2: 18 mm stents premounted on balloon, dipping plus pipetting steps) is given as 225-250 μg per stent. For the same compound, the area distribution runs as follows: (Example 1.3, 3 mm balloon system) 2.6 μg/mm^2; (Example 1.3, 4 mm balloon system) 2.4 μg/mm^2. Besides, the “mean loading per stent” value (Example 1.3, 3 mm balloon system, 5 samples) was 2.59 µg. Besides, the “mean level of drug” value (Example 1.3, 4 mm balloon system, 3 samples) was found to be 240 µg.
